Measured values: publication PMC6796842
No constants are given. Whether binding was seen depends on the method and setting. In cells and extracts the contact can be indirect. Some results given as binding are weak or reduced against the parent protein; the word gives no strength.

The chains behind the UniProt entries cited, without tags or fusion partners. Where a name states a change or a piece, a line headed by the entry shows the natural chain unless it says otherwise. A line that says so, or that is headed by a name, gives the form on record, which may keep a tag or linker. Residues count along the entry.
GFP-fused WT human CTLA-4 in HEK293T cells (P16410, residues 36-223): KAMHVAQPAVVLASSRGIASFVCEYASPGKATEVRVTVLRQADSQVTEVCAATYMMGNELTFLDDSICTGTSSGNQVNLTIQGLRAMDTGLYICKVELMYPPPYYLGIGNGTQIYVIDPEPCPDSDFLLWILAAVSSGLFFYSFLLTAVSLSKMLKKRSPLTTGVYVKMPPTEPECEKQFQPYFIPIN
GFP-fused human CTLA-4 mutant Y201V in HEK293T cells (P16410, form named): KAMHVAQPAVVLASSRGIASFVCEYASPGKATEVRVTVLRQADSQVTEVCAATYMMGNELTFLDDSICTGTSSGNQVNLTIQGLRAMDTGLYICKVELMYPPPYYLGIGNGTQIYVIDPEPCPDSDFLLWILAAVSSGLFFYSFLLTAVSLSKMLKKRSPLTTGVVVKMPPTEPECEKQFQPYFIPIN
UniProt P50851: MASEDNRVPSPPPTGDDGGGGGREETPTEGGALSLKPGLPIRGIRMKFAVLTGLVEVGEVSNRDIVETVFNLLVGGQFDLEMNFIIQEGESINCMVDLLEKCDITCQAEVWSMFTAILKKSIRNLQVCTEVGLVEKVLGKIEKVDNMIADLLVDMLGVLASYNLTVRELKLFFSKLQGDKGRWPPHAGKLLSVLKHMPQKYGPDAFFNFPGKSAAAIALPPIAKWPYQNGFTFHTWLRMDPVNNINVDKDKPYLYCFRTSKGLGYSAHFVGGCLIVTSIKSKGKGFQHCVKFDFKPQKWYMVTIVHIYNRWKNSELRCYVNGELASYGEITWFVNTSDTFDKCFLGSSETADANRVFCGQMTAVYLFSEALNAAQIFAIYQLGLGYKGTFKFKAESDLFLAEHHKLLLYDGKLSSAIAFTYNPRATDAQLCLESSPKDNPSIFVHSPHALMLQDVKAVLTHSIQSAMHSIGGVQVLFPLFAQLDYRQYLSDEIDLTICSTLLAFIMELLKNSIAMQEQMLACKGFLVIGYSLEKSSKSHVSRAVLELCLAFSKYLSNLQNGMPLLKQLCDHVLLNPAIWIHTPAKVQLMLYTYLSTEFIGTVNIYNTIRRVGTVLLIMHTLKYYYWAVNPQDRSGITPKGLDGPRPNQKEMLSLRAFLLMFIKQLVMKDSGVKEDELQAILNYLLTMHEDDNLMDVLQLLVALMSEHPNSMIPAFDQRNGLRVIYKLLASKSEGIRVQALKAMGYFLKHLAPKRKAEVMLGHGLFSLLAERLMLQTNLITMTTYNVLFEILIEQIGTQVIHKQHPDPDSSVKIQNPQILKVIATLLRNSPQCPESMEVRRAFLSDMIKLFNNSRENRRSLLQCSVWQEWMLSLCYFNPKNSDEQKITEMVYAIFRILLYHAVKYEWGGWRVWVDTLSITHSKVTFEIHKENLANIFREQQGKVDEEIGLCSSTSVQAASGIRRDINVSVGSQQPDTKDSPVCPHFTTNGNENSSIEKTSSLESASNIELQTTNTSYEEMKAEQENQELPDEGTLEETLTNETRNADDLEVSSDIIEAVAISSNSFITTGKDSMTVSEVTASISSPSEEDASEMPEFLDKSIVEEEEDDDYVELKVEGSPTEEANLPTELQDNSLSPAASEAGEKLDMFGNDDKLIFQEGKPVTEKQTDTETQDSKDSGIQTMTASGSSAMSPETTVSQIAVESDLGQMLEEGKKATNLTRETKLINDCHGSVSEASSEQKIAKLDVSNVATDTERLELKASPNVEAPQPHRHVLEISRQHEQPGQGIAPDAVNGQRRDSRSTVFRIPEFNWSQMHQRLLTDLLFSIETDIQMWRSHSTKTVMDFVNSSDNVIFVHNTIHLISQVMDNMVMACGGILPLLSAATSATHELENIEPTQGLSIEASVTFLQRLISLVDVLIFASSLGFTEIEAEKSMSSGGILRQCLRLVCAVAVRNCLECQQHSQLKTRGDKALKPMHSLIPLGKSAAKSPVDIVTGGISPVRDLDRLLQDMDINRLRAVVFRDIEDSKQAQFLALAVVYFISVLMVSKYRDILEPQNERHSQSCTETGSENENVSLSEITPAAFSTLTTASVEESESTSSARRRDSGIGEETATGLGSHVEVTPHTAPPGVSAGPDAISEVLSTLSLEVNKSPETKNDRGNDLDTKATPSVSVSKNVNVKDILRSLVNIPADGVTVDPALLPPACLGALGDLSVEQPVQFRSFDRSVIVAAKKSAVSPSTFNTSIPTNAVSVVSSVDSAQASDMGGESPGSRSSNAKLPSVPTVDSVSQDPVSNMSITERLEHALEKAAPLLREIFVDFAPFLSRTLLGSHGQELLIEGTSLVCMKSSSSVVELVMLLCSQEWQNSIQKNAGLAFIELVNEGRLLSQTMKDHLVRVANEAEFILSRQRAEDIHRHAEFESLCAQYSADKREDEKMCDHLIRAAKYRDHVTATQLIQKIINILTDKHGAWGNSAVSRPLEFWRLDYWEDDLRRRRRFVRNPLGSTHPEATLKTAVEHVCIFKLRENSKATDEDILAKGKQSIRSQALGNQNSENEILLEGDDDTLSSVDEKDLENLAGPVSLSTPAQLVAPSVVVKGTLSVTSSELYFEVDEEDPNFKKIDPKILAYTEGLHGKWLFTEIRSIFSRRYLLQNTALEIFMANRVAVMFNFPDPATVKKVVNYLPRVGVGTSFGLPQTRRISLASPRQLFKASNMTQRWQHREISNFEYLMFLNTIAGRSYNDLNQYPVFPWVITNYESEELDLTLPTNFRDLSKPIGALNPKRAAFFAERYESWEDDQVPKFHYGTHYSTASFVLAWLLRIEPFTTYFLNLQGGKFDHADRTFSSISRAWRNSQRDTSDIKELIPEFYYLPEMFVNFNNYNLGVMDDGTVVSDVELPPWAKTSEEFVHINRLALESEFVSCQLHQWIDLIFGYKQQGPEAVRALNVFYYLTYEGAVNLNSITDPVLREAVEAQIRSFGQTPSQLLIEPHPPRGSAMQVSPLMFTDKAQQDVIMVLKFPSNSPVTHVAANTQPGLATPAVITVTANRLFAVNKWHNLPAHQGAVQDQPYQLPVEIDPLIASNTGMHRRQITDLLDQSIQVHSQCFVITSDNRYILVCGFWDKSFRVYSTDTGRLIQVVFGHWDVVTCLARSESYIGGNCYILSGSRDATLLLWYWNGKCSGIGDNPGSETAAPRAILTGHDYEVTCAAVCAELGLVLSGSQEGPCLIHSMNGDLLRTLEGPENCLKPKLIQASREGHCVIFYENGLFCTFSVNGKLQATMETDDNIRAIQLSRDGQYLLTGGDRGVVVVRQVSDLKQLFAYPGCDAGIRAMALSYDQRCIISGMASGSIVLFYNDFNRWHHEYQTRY

Legend:
[1] = biological target: GFP-fused WT human CTLA-4 in HEK293T cells (human) (UniProt P16410); assay: co-IP; HEK293T cells transfected with GFP-fused WT or Y201V CTLA-4; lysis in M2 buffer; anti-GFP and protein G agarose overnight at 4 °C; immunoblot for LRBA and CTLA-4
[2] = biological target: GFP-fused human CTLA-4 mutant Y201V in HEK293T cells (human) (UniProt P16410); assay: as above

binding [1]: binds | binding [2]: no binding
Substance: lipopolysaccharide-responsive and beige-like anchor (LRBA) protein, endogenous in HEK293T cells (from UniProt P50851 1-2863)
